Results are given in words; binding and its absence hold for the method and conditions named. Binding seen in cells or lysates may run through a third protein. Some binding calls cover weakened binding; strength is not graded here.
Molecular target: T1, Phosphoglycerate mutase/protein family member 5 (PGAM5) (human (endogenous in 7402 and HepG2)) (UniProt Q96HS1)
T1 sequence: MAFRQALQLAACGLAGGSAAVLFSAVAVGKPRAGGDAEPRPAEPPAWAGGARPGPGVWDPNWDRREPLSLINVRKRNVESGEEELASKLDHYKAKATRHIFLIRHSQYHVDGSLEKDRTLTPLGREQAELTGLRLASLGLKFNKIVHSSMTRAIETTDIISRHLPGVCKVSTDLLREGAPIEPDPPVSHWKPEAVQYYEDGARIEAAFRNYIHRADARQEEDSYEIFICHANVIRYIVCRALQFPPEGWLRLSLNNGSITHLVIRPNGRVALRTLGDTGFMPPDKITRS
Assay: co-IP; anti-PGAM5 antibody on whole cell lysates of 7402 and HepG2 cells; lysis buffer 20 mM Tris pH 7.5, 150 mM NaCl, 1 mM EDTA, 1 mM EGTA, 1% Triton X-100; protein A/G agarose; blot with anti-Bcl-xL

binding: binds
Substance: Bcl-xL (from UniProt Q07817-1 1-233)
